PubChem BioAssay AID1053208, Peter MacCallum Cancer Centre – 2014

Test: 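Genes whose silencing cuts survival of bone tumour cells only with doxorubicin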 (primary screen)
Cells: mouse osteosarcoma cells, early-passage culture from an engineered mouse model of fibroblastic bone tumour
Reagents: siRNA pool against mouse genes, 40 nM
Timing: about 120 h (48 h before drug, then 72 h with drug)
Conditions: doxorubicin 100 nM for 72 h, roughly 30-40% inhibitory dose
Measured: 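Luminescent ATP signal taken as viability with or without 100 nM doxorubicin for 72 h; mean of two wells set against non-targeting siRNA and turned into robust z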
Reading the numbers: viability z-score with doxorubicin and doxorubicin viability vs non-targeting: higher = more viable cells under doxorubicin; viability z-score without drug: higher = more viable cells with knock-down alone; z-score of drug to no-drug ratio: higher = less drug sensitisation by knock-down
Hit rule: 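Called active if knock-down leaves viability unchanged without drug (z within -2 to 2) but lowers it with doxorubicin (z at or under -2)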
Here is a random part of about 17,000 reagents tested. In the full data, 788 (4.7%) got an active call. 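Calls rest on z-score classes alone; an extra cut-off of viability at most 70% of control was not applied to them.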 Reagents against one gene are numbered here. Reagent sequences are not shown.

target	reagent no.	combined z-score class	viability z-score with doxorubicin	viability z-score without drug	z-score of drug to no-drug ratio	doxorubicin viability vs non-targeting	outcome
Rnf113a2	1	no change with or without drug	-0.67	1.18	-1.35	0.88	inactive
Ormdl3	1	no change with or without drug	-0.11	-1.52	1.12	0.93	inactive
Slc35a2	1	no change with or without drug	-0.22	-1.18	0.79	0.92	inactive
Trim2	1	high cell count without drug only	1.12	2.19	-0.22	1.04	inactive
Acss2	1	no change with or without drug	0.67	-1.69	2.25	1	inactive
Ccdc166	1	no change with or without drug	0.67	0.51	0.45	1	inactive
Myl1	1	no change with or without drug	0.67	-1.52	2.02	1	inactive
Gm4836	1	no change with or without drug	-0.79	-0.67	-0.22	0.87	inactive
Fam32a	1	no change with or without drug	0	1.35	-0.79	0.94	inactive
4933409K07Rik	1	high cell count with and without drug	2.47	5.23	-0.67	1.16	inactive
Khsrp	1	no change with or without drug	0.56	0.84	0.11	0.99	inactive
Or4d5	1	low cell count with doxorubicin only	-2.25	-1.18	-1.57	0.74	active
Or52p1	1	high cell count without drug only	1.57	2.19	0.22	1.08	inactive
Zfp414	1	low cell count with doxorubicin only	-2.02	0.17	-2.14	0.76	active
Kcne4	1	no change with or without drug	-1.12	0.51	-1.35	0.84	inactive
Aurkc	1	high cell count with doxorubicin only	2.36	0.51	2.14	1.15	inactive
Ier5	1	no change with or without drug	-1.12	-0.84	-0.56	0.84	inactive
Bricd5	1	no change with or without drug	0.45	0.51	0.22	0.98	inactive
Marveld2	1	low cell count without drug only	-1.46	-2.53	0.34	0.81	inactive
Pnpt1	1	low cell count with and without drug	-2.36	-2.19	-1.01	0.73	inactive
Dsn1	1	no change with or without drug	0.9	0.84	0.45	1.02	inactive
Ahnak	1	no change with or without drug	-1.35	-0.17	-1.24	0.82	inactive
Ptprh	1	no change with or without drug	-0.22	-0.84	0.45	0.92	inactive
Krt9	1	no change with or without drug	-0.45	-1.01	0.34	0.9	inactive
Trex1	1	low cell count with doxorubicin only	-2.02	0.51	-2.25	0.76	active
Rhot1	1	high cell count with and without drug	3.71	2.7	1.8	1.27	inactive
Slc35a4	1	no change with or without drug	-0.22	0.34	-0.34	0.92	inactive
Liph	1	no change with or without drug	0.34	-0.51	0.79	0.97	inactive
Nes	1	no change with or without drug	0.11	0.17	0.11	0.95	inactive
Lcorl	1	no change with or without drug	1.35	-0.51	1.91	1.06	inactive
Txnl4a	1	no change with or without drug	1.12	-0.84	2.02	1.04	inactive
Txnl4a	2	no change with or without drug	-0.22	0.17	-0.22	0.92	inactive
Fmr1nb	1	no change with or without drug	0.79	0.17	0.79	1.01	inactive
Grina	1	no change with or without drug	1.12	0.51	0.9	1.04	inactive
Alg6	1	no change with or without drug	-0.22	-0.51	0.22	0.92	inactive
Coro1b	1	no change with or without drug	-0.9	-0.17	-0.79	0.86	inactive
Psmd9	1	high cell count without drug only	1.35	2.7	-0.34	1.06	inactive
Ptpn23	1	no change with or without drug	0.34	-0.17	0.56	0.97	inactive
Dennd5a	1	no change with or without drug	0.45	1.18	-0.22	0.98	inactive
Pbp2	1	no change with or without drug	-0.67	0.17	-0.67	0.88	inactive
Cdk9	1	no change with or without drug	-1.12	-1.85	0.22	0.84	inactive
Akap7	1	no change with or without drug	-0.67	1.01	-1.24	0.88	inactive
Ankrd27	1	no change with or without drug	-0.45	0.17	-0.45	0.9	inactive
Tusc3	1	no change with or without drug	0.45	-0.51	1.01	0.98	inactive
Snrpe	1	low cell count with and without drug	-6.97	-5.23	-5.4	0.32	inactive
Trim34a	1	high cell count with doxorubicin only	2.02	1.69	1.01	1.12	inactive
Mylpf	1	no change with or without drug	0.9	1.01	0.34	1.02	inactive
Nars2	1	no change with or without drug	-0.34	-0.17	-0.11	0.91	inactive
Sh2b3	1	no change with or without drug	0.56	-0.34	0.9	0.99	inactive
Kif15	1	no change with or without drug	0.67	0.84	0.22	1	inactive
Dnaja4	1	no change with or without drug	0	-0.51	0.45	0.94	inactive
Cyb5r2	1	no change with or without drug	0.9	0.84	0.45	1.02	inactive
Ptcd1	1	no change with or without drug	0.45	0.84	0	0.98	inactive
Tmem45a	1	no change with or without drug	1.12	0.51	0.9	1.04	inactive
Snd1	1	no change with or without drug	0.22	-0.84	1.01	0.96	inactive
Sh3kbp1	1	no change with or without drug	0.22	-0.51	0.67	0.96	inactive
Slc24a2	1	low cell count with doxorubicin only	-2.47	-0.17	-2.36	0.72	active
Sebox	1	high cell count without drug only	1.91	2.53	0.34	1.11	inactive
Isoc2b	1	no change with or without drug	0.11	-1.52	1.35	0.95	inactive
Taf15	1	no change with or without drug	0.11	0.51	-0.11	0.95	inactive
Eif2ak1	1	no change with or without drug	-1.12	-1.69	0.11	0.84	inactive
Tmem202	1	no change with or without drug	-1.01	1.85	-2.02	0.85	inactive
Polk	1	low cell count with and without drug	-4.16	-2.19	-3.15	0.57	inactive

Reagents listed so far called active, once more:
target	reagent no.	combined z-score class	viability z-score with doxorubicin	viability z-score without drug	z-score of drug to no-drug ratio	doxorubicin viability vs non-targeting	outcome
Or4d5	1	low cell count with doxorubicin only	-2.25	-1.18	-1.57	0.74	active
Zfp414	1	low cell count with doxorubicin only	-2.02	0.17	-2.14	0.76	active
Trex1	1	low cell count with doxorubicin only	-2.02	0.51	-2.25	0.76	active
Slc24a2	1	low cell count with doxorubicin only	-2.47	-0.17	-2.36	0.72	active
